These are yes or no findings as the source states them, for the method shown. Binding seen in cells or lysates may run through a third protein. A yes stands for co-enrichment or nearness to the bait. Other partners may have been found. For part of these data: No binding means not detected with the bait.
What was measured:
[1] = molecular target: EZH2 (human (endogenous in NCI-H295R and in human adrenal tissue)) (UniProt Q15910); experiment: affinity purification with mass spectrometry
[2] = molecular target: SF1 (NR5A1) (human (endogenous in NCI-H295R and in human adrenal tissue)) (UniProt Q13285); experiment: affinity purification with mass spectrometry

Sequences of proteins named here, by UniProt entry; tags and fusion partners are left off. A change or cut given only in a name is not applied to a line headed by its entry.
UniProt Q15910: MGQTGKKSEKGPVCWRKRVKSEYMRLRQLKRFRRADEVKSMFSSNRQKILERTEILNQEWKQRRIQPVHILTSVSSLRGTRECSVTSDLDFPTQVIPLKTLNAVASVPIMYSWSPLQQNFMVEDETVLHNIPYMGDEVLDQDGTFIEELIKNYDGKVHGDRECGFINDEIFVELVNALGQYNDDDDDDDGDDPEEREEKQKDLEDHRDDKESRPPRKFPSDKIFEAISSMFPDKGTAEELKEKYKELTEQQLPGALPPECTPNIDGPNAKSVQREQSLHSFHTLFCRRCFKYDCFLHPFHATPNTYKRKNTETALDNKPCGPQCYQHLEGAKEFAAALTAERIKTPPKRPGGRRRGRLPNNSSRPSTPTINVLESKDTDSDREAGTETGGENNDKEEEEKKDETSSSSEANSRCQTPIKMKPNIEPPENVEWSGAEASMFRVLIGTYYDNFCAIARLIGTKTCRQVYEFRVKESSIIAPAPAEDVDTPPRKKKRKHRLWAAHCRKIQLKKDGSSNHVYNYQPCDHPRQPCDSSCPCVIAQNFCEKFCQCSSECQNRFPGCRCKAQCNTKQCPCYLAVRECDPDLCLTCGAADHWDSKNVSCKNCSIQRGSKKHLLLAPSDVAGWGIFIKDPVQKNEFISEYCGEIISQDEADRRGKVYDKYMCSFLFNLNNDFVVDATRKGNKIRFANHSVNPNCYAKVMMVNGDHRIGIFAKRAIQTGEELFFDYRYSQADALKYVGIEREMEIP
UniProt Q13285: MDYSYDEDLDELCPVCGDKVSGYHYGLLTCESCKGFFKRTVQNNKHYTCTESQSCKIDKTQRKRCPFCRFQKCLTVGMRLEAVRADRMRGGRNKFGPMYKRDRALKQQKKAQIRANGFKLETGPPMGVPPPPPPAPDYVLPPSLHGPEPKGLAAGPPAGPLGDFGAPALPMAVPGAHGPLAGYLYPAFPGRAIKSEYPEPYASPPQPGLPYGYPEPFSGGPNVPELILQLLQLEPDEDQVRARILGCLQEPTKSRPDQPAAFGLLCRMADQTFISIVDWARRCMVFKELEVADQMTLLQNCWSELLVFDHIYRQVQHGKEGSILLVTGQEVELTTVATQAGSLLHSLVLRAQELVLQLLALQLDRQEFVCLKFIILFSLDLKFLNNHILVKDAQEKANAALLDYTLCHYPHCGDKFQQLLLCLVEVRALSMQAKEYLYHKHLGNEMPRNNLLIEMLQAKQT
UniProt P35222: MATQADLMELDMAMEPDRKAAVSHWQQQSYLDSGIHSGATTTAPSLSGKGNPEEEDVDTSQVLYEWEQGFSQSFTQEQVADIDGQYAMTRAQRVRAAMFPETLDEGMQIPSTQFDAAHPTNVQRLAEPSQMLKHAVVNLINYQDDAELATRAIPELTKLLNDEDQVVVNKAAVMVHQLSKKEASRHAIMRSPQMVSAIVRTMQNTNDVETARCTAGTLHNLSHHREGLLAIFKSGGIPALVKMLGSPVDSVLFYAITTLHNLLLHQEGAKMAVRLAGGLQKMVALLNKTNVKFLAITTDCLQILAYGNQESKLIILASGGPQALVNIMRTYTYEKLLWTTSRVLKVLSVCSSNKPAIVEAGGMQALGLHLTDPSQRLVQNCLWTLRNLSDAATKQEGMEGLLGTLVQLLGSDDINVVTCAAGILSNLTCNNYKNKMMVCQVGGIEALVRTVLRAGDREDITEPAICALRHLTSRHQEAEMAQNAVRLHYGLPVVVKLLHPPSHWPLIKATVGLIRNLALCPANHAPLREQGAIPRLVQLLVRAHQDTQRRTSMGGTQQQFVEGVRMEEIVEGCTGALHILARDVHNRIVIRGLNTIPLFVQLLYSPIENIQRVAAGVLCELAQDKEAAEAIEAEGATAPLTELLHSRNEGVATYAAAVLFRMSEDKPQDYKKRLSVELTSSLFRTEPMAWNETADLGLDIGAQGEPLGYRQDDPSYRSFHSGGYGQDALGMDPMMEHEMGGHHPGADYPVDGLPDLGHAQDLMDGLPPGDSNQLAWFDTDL

## SF1 (NR5A1) (from UniProt Q13285 1-461)
[1]
  binding: no binding

## p.S45P β-catenin (from UniProt P35222 1-781)
[1]
  binding: binds
[2]
  binding: binds

Source: paper doi:10.1101/2022.07.02.497654
